From PubChem BioAssay AID540336 (Broad Institute, 2011)
Among all 330,000 compounds or so, about 520 (0.16%) were called active. Inconclusive results, whose numbers are uncertain, are shown with a selection of clear calls.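 The calls were made as follows: active = inhibition of at least 50% in every replicate; inconclusive = best replicate reaches 50% inhibition but some replicates fall short; inactive = the rest.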

Amino acid sequences for entries named in this document (tags omitted).
UniProt Q5AAJ8, whole entry, looked up: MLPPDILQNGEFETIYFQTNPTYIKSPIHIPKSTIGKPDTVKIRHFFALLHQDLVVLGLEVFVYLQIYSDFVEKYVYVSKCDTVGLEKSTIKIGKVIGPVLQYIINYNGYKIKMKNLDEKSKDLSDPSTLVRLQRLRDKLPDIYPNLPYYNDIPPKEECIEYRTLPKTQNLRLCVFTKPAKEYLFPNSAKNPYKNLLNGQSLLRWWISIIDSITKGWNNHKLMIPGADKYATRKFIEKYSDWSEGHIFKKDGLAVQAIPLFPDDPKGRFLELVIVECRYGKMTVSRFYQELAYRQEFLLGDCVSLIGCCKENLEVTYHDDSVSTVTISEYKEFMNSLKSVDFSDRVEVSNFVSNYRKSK

These compounds were tested against Histone acetyltransferase RTT109 (Candida albicans (strain SC5314 / ATCC MYA-2876)) (UniProt Q5AAJ8) (assay: Rtt109-Vps75 histone acetyltransferase blockade – biochemical, ThioGlo CoA-SH fluorescence, plate reader, primary screen (AID 540336)). Conditions: purified Rtt109/Vps75, ThioGlo CoA-SH fluorescence, 4 h; at 34.9 µM; stronger effect = higher value.

inhibition, inconclusive:
Cn1c(CN2CCOCC2)nnc1SCc1cccc(F)c1 26.6%
Cc1ccc(C(=O)/C=C/Nc2ccc(S(=O)(=O)Nc3onc(C)c3C)cc2)cc1 36.3%
COc1ccc(C(=S)N2CCN(c3ccccc3Cl)CC2)cc1OC 24.2%
Cc1ccc(C(c2nnnn2CS(=O)(=O)c2ccc(C)cc2)N2CCCC2)cc1 (centres undefined) 25.4%
O=c1c2cc(F)ccc2sn1-c1ccc(F)cc1 55.1%
CN(C)c1ccc(-c2nnn(CC(=O)Nc3ccccc3N3CCOCC3)n2)cc1 41.9%
O=[N+]([O-])c1cccc(-c2c(-c3ccccc3)ncc3cc(F)ccc23)c1 29.6%
Cc1ccc(C(=O)NC(=S)NCc2cccnc2)cc1C 35%
CCOC(=O)c1nnn(-c2nonc2-n2cccc2)c1CCl 26.4%
CCOC(=O)c1ccc(S(=O)(=O)Nc2nc3cc(S(=O)(=O)NC4=NCCCCC4)ccc3s2)cc1 59.8%
COc1ccc(/C=C/S(=O)(=O)NCc2ccccc2)cc1OC 30.5%
CCn1cc(C(=O)NCCCN2CCCC(C)C2)c(=O)c2cc(S(=O)(=O)N3CCc4ccccc4C3)ccc21 (centres undefined) 51.4%
CCOC(=O)N(Cc1ccccc1)C1CC1 17%
CCCn1c(SCC(=O)Nc2ccc(C)c(S(=O)(=O)N3CCOCC3)c2)n[nH]c1=O 38.6%
Cc1ccc(C)c(N2CCN(CCCNC(=O)Cn3cccc3C(=O)c3ccccc3)CC2)c1 38.3%
CC1CCC(C(C)C)C(OC(=O)Cn2c(-c3ccc(Br)cc3)[n+](C)c3ccccc32)C1 (centres undefined) 36.4%
CCC[n+]1c(C)sc2c(OC)ccc(OC)c21 84%
CCOC(=O)N1CCC(N2CCN(S(=O)(=O)c3ccc(NC(C)=O)cc3)CC2)CC1 37.7%
Cc1nc(SCC(=O)NC(=O)NCCC(C)C)c2c(-c3cccs3)csc2n1 23.9%
O=[N+]([O-])c1ccc(S(=O)(=O)c2cccc(C(F)(F)F)c2)nc1 58.2%
Cc1ccc2[nH]c(=O)c(CN(CCCN3CCOCC3)C(=O)Nc3ccc(Cl)cc3)cc2c1 52.2%
COC(=O)c1ccc(Nc2nc(-c3ccncc3)nc3ccccc23)cc1 26.4%
COc1ccc(CSC2=NCCN2)cc1Cl 21.1%
COc1ccc(/C=C2\S/C(=N/S(=O)(=O)c3cccs3)NC2=O)cc1 54.6%
C#CCOCCOCCOCCNc1nc(N2CCN(C(=O)CCCCCCCCCCNC(=O)[C@H]([C@@H](C)CC)n3cc(CCCCN=C(N)N)nn3)CC2)nc(N2CCN(C(=O)CCCCCCCCCCNC(=O)[C@H](CO)n3cc(CCCSC)nn3)CC2)n1 47.4%
Oc1ccc2c(c1)OCC1(O)Cc3cc(O)c(O)cc3C21 (centres undefined) 82.2%
O=C(Cn1c(=O)oc2ccccc21)N1CCOCC1 27.1%
O=C(Nc1ncccc1O)c1ccc(NS(=O)(=O)c2ccc3[nH]c(=O)[nH]c3c2)cc1 28%
O=C(N[C@@H]1C[C@H]2CC[C@@H]1C2)c1ccco1 9.9%
CCOC(=O)/C=c1\s/c(=C(\C#N)C(=O)OCC)n(-c2ccccc2)c1=O 27.5%
OCCNCc1cc(Br)ccc1OCc1ccc(Cl)cc1Cl 49.5%
COc1cccc2cc(C(=O)Nc3ccccc3C(=O)N3CCOCC3)oc12 22.5%
C#CCOCCOCCOCCNc1nc(N2CCN(C(=O)CCCCCCCCCCNC(=O)[C@H](CCCCN)n3cc(C)nn3)CC2)nc(N2CCN(C(=O)CCCCCCCCCCNC(=O)[C@@H]([C@H](C)O)n3cc(C)nn3)CC2)n1 41.7%

inhibition, active:
Cc1nn(C)cc1[C@@H]1C[C@H]2CN(Cc3cccc(Cl)c3)C(=O)[C@]23CCCN13 52.6%
COc1ccccc1C(=O)NCC(=O)N=Nc1c(O)n(C(C)C)c2ccccc12 63.6%
CC(=O)N(c1ccc2oc(=O)sc2c1)S(=O)(=O)c1ccccc1 67.5%
COc1ccc(S(=O)(=O)N(C)C)cc1NC(=O)Cc1ccc(S(=O)(=O)N2CCOCC2)s1 50.8%
C[C@]12CC[C@@H]3c4cc(O)c(O)cc4CC[C@H]3[C@@H]1CC[C@@H]2O 123%
COc1cccc(OC)c1C(=O)Nc1cccc(-c2ccc(N3CCOCC3)nn2)c1 51.5%
COc1cc(NC(=O)COc2c(C)cc(C)cc2[N+](=O)[O-])c(OC)cc1Cl 51.6%
O=c1[nH]c2ccccc2c(O)c1O 176%
CN(CC(=O)Nc1ccc(F)cc1)C(=O)COc1ccccc1Cc1ccccc1 50.8%
CCOC(=O)c1c(C)oc2c(CC(=O)c3ccccc3)c(Cl)c(O)c(O)c12 57.8%

inhibition, inactive:
CC(C)Cn1c(N)c(C(=O)COC(=O)c2nccnc2N)c(=O)n(C)c1=O -8.68%
CC1=N/C(=C\c2ccccc2Cl)C(=O)O1 5.01%
COc1ccc(NC(=O)CSc2nnc(NC(=O)c3ccco3)s2)cc1 -5.54%
CN(C)c1ccc(NC(=S)NC(=O)/C=C/c2ccco2)cc1 -2.67%
Cc1ccc2nc(/C=C/c3cccc(F)c3)ccc2c1 -0.75%
Cc1cc(C)nc(N(C#N)Cc2ccccc2Cl)n1 4.97%
CC(C)c1nc(SCC(=O)Nc2ccc3c(c2)OCCO3)c2c(=O)n(C)c(=O)n(C)c2n1 -4.55%
O=C(Nc1nncs1)C1c2ccccc2Oc2ccccc21 -2.5%
C=C1c2cc(C)ccc2NC(=O)N1c1ccc(C)cc1 -7.28%
CN(C)c1ccc(NC(=O)CSc2nc3c(c(=O)[nH]2)CCCC3)cc1 -2.45%
O=S(=O)(NCCc1ccccc1)c1cccs1 -1.73%
CCOc1cccc2cc(-c3cn4cc(C)ccc4n3)c(=O)oc12 -3.64%
CCOC(=O)N1CCN(C(=O)CN2C(=O)NC(c3ccccc3)(c3ccccc3)C2=O)CC1 -14.4%
COC(=O)c1ccc(N)c(N=CC2=C(O)CC(C)(C)CC2=O)c1 -2.91%
O=C(NCC(c1cccnc1)N1CCN(c2ccc(F)cc2)CC1)OCc1ccccc1 (centres undefined) 1.73%
O=C(O)CCNc1nc(C(F)(F)F)nc2ccccc12 -7.38%
CC1(C)CC(N2CCC(=O)NC2=S)CC(C)(C)N1 6.33%
CCN(C(=O)COC(=O)C1CCN(S(=O)(=O)c2cccs2)CC1)c1ccccc1 3.26%
COc1cc(OC)cc(C(=O)NNc2nc3cc4c(cc3s2)OCO4)c1 -4.87%
CC(=O)c1sc(NC(=O)C2CCCN2S(=O)(=O)c2ccccc2F)nc1C (centres undefined) 6.38%
O=C(COC(=O)c1c(F)cccc1Cl)NC1CCCCC1 -4.84%

Random excerpt: 2 compounds from above
inhibition, inactive:
C=C1c2cc(C)ccc2NC(=O)N1c1ccc(C)cc1 -7.28%
O=S(=O)(NCCc1ccccc1)c1cccs1 -1.73%

2 consecutive records already listed:
inhibition, inactive:
COc1cc(OC)cc(C(=O)NNc2nc3cc4c(cc3s2)OCO4)c1 -4.87%
CC(=O)c1sc(NC(=O)C2CCCN2S(=O)(=O)c2ccccc2F)nc1C (centres undefined) 6.38%
